Counter-ions that a name gives are not always drawn. Some of the results follow. The calls rarely recur for the same compound in another form.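 Kinases, fused to nanoluciferase, were expressed in K562 cells; luminescence was measured every 4 h from 2 to 18 h as percent of control (DMSO = 100%, positive control = 0%). A time point is decreased if signal falls significantly (2 sigma). Hits were called by the authors by a rule that is not shown; the count of time points alone does not decide it.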
These compounds were tested against CSF1R (UniProt P07333) (assay: number of time points (of 5) at which kinase-Nluc abundance scored as decreased, DMSO-normalised (count); higher = more persistent destabilization). Conditions: K562; 2-18 h.

By UniProt entry, the sequences of proteins in these tests, tags left out.
UniProt P07333, whole entry: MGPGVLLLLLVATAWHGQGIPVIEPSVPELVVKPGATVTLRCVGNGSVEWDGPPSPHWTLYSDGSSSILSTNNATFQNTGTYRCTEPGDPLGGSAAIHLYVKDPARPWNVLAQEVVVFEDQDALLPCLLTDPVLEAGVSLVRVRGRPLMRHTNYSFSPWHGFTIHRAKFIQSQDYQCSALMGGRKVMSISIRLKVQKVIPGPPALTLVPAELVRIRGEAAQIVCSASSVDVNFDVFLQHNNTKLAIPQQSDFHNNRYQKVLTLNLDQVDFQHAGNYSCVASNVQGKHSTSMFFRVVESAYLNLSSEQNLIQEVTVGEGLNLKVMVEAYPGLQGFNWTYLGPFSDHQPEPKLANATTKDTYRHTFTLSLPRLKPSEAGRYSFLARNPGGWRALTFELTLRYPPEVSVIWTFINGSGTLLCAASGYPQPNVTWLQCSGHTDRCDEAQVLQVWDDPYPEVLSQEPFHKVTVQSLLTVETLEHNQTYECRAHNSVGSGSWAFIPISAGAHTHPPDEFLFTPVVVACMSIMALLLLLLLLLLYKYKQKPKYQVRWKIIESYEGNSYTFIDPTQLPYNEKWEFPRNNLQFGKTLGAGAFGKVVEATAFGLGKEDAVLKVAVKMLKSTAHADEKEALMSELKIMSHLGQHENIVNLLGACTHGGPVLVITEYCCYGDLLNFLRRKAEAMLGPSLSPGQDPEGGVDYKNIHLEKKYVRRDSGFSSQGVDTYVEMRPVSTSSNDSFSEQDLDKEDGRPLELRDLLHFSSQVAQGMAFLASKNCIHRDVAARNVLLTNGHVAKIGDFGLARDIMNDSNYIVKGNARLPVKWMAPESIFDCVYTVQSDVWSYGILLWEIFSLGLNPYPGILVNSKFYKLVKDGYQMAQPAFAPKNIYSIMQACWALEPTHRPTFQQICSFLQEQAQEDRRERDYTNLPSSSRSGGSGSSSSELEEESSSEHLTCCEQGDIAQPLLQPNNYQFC

Row | Structure (SMILES) | number of time points
1 | C[C@@H]1CCN(C(=O)CC#N)C[C@@H]1N(C)c1ncnc2[nH]ccc12 [Tofacitinib] (10 µM) | 0
2 | CC#CC(=O)N1CC[C@@H](n2c(=O)n(-c3ccc(Oc4ccccc4)cc3)c3c(N)ncnc32)C1 [Tirabrutinib (hydrochloride)] (10 µM) | 0
3 | Cc1ccc(C(=O)Nc2ccc(Oc3cc4cnn(C)c4cc3-c3cn[nH]c3)c(F)c2)c(=O)n1-c1ccc(F)cc1 [Merestinib] (2.5 µM) | 0
4 | Cc1cc(Nc2ncnc3ccc(NC4=NC(C)(C)CO4)cc23)ccc1Oc1ccn2ncnc2c1 [Tucatinib (hemiethanolate)] (2.5 µM) | 0
5 | C[C@@]1(c2ncncc2F)NC(=O)c2cc(-c3cn[nH]c3)ccc21 (10 µM) | 0
6 | COc1cc(Nc2ncc(F)c(Nc3ccc4c(n3)NC(=O)C(C)(C)O4)n2)cc(OC)c1OC (10 µM) | 0
7 | Cc1cc2ncc(-c3ccc(O)c(O)c3)nc2cc1C [Tyrphostin AG1433] (10 µM) | 0
8 | C=CC(=O)Nc1cccc(Nc2nc(Nc3ccc(N4CCN(C(C)=O)CC4)cc3OC)ncc2C(F)(F)F)c1 [Rociletinib hydrobromide] (10 µM) | 0
9 | Cc1cc(Nc2ncnc3ccc(NC4=NC(C)(C)CO4)cc23)ccc1Oc1ccn2ncnc2c1 [Tucatinib] (2.5 µM) | 0
10 | CCc1cc2c(cc1N1CCC(N3CCOCC3)CC1)C(C)(C)c1[nH]c3cc(C#N)ccc3c1C2=O [Alectinib (Hydrochloride)] (2 µM) | 0
11 | Cn1nccc1Nc1nccc(-c2ccn([C@H](CO)c3ccc(Cl)c(F)c3)c(=O)c2)n1 [Ravoxertinib hydrochloride] (10 µM) | 0
12 | CC#CC(=O)N1CC[C@@H](n2c(=O)n(-c3ccc(Oc4ccccc4)cc3)c3c(N)ncnc32)C1 [Tirabrutinib] (10 µM) | 0
13 | C=CC(=O)Nc1cccc(Nc2nc(Nc3ccc(N4CCN(C(C)=O)CC4)cc3OC)ncc2C(F)(F)F)c1 [Rociletinib] (10 µM) | 0
14 | COc1cc(Nc2ncc(F)c(Nc3ccc4c(n3)N(COP(=O)(O)O)C(=O)C(C)(C)O4)n2)cc(OC)c1OC [Fostamatinib Disodium] (10 µM) | 0
15 | COc1cc(Nc2ncc(F)c(Nc3ccc4c(n3)N(COP(=O)(O)O)C(=O)C(C)(C)O4)n2)cc(OC)c1OC [Fostamatinib (disodium hexahydrate)] (10 µM) | 0
16 | COc1cc2nccc(Oc3ccc(NC(=O)NC4CC4)c(Cl)c3)c2cc1C(N)=O [Lenvatinib (mesylate)] (10 µM) | 0
17 | Oc1ccc(Nc2nc(-c3ccc(Cl)cc3)cs2)cc1 (10 µM) | 0
18 | NC(=O)c1nc(Nc2ccccc2)sc1NC(=O)C1CCCCC1 (10 µM) | 0
19 | CC1=C(C(=O)O)N2C(=O)[C@@H](NC(=O)[C@H](N)C3=CCC=CC3)[C@H]2SC1 [Cephradine] (10 µM) | 0

Copied from the list.
number of time points with Cn1nccc1Nc1nccc(-c2ccn([C@H](CO)c3ccc(Cl)c(F)c3)c(=O)c2)n1 [Ravoxertinib hydrochloride] (10 µM) is entered as 0
number of time points with Oc1ccc(Nc2nc(-c3ccc(Cl)cc3)cs2)cc1 (10 µM) is entered as 0
number of time points with Cc1cc2ncc(-c3ccc(O)c(O)c3)nc2cc1C [Tyrphostin AG1433] (10 µM) is entered as 0

Remaining list, next part:

Row | Structure (SMILES) | number of time points
20 | Cc1ccc(C(=O)Nc2ccc(Oc3cc4cnn(C)c4cc3-c3cn[nH]c3)c(F)c2)c(=O)n1-c1ccc(F)cc1 [Merestinib dihydrochloride] (2.5 µM) | 0
21 | Cc1ccc2nc(NCCN)c3ncc(C)n3c2c1 (2.5 µM) | 0
22 | CC(=O)NC1CC(n2cnc(NC(=O)Cc3ccc4ccccc4c3)c2)C1 (configuration not stated) (10 µM) | 0
23 | COc1cc2nccc(Oc3ccc(NC(=O)NC4CC4)c(Cl)c3)c2cc1C(N)=O [Lenvatinib] (10 µM) | 1
24 | Cn1cnc2c(F)c(Nc3ccc(Br)cc3Cl)c(C(=O)NOCCO)cc21 [Selumetinib (sulfate)] (10 µM) | 0
25 | CCN1CCN(Cc2ccc(Nc3ncc(F)c(-c4cc(F)c5nc(C)n(C(C)C)c5c4)n3)nc2)CC1 [Abemaciclib] (2 µM) | 0
26 | C[C@@H]1CCN(C(=O)CC#N)C[C@@H]1N(C)c1ncnc2[nH]ccc12 [Tofacitinib (citrate)] (10 µM) | 0
27 | Cn1nccc1Nc1nccc(-c2ccn([C@H](CO)c3ccc(Cl)c(F)c3)c(=O)c2)n1 [Ravoxertinib] (10 µM) | 0
28 | COc1cc(Nc2ncc(F)c(Nc3ccc4c(n3)NC(=O)C(C)(C)O4)n2)cc(OC)c1OC [R406 (free base)] (10 µM) | 0
29 | S=C(SSC(=S)N1CCOCC1)N1CCOCC1 (10 µM) | 1
30 | CC1CCc2c(cc(Br)c(F)c2Br)N1C=O (configuration not stated) (10 µM) | 0
31 | Cc1[nH]c(/C=C2\C(=O)Nc3ccccc32)c(C)c1CCC(=O)O [(Z)-Orantinib] (10 µM) | 0
32 | CCN1CCN(Cc2ccc(Nc3ncc(F)c(-c4cc(F)c5nc(C)n(C(C)C)c5c4)n3)nc2)CC1 [Abemaciclib (methanesulfonate)] (10 µM) | 0
33 | Cn1cnc2c(F)c(Nc3ccc(Br)cc3Cl)c(C(=O)NOCCO)cc21 [Selumetinib] (10 µM) | 0
34 | CCc1cc2c(cc1N1CCC(N3CCOCC3)CC1)C(C)(C)c1[nH]c3cc(C#N)ccc3c1C2=O [Alectinib] (10 µM) | 0
35 | C=C(CC[C@@H](C(=O)O)[C@H]1[C@H](O)C[C@@]2(C)C3=C(CC[C@]12C)[C@@]1(C)CC[C@H](OC(C)=O)C(C)(C)[C@@H]1CC3)C(C)C [Pachymic acid] (10 µM) | 0
36 | Cc1[nH]c(/C=C2\C(=O)Nc3ccccc32)c(C)c1CCC(=O)O [Orantinib] (10 µM) | 0
37 | C=CC(=O)Nc1ccc(CN2C(=O)N(c3cc(OC)cc(OC)c3)Cc3cnc(Nc4ccc(N5CCN(C)CC5)cc4)nc32)cc1 (2.5 µM) | 0

Source: the supplement of paper PMC12823440, “Inhibitors supercharge kinase turnover through native proteolytic circuits” (Nature, 2025)
